Read-outs that look alike come from different tables or passages of the source. These are yes or no findings as the source states them, for the method shown. Binding seen in cells or lysates may run through a third protein.

By UniProt entry, the sequences of proteins in these tests, tags left out. Where a name states a change or a piece, a line headed by the entry shows the natural chain unless it says otherwise.
UniProt Q86YI8: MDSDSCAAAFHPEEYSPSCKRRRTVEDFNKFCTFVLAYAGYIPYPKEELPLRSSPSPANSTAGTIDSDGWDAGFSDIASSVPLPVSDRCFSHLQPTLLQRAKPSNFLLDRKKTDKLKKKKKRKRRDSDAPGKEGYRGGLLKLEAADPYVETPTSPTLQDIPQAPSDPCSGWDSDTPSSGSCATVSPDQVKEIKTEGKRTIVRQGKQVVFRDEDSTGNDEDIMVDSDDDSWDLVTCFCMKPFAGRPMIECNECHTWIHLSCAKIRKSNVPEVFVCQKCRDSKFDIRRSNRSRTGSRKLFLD
UniProt Q9UQE7: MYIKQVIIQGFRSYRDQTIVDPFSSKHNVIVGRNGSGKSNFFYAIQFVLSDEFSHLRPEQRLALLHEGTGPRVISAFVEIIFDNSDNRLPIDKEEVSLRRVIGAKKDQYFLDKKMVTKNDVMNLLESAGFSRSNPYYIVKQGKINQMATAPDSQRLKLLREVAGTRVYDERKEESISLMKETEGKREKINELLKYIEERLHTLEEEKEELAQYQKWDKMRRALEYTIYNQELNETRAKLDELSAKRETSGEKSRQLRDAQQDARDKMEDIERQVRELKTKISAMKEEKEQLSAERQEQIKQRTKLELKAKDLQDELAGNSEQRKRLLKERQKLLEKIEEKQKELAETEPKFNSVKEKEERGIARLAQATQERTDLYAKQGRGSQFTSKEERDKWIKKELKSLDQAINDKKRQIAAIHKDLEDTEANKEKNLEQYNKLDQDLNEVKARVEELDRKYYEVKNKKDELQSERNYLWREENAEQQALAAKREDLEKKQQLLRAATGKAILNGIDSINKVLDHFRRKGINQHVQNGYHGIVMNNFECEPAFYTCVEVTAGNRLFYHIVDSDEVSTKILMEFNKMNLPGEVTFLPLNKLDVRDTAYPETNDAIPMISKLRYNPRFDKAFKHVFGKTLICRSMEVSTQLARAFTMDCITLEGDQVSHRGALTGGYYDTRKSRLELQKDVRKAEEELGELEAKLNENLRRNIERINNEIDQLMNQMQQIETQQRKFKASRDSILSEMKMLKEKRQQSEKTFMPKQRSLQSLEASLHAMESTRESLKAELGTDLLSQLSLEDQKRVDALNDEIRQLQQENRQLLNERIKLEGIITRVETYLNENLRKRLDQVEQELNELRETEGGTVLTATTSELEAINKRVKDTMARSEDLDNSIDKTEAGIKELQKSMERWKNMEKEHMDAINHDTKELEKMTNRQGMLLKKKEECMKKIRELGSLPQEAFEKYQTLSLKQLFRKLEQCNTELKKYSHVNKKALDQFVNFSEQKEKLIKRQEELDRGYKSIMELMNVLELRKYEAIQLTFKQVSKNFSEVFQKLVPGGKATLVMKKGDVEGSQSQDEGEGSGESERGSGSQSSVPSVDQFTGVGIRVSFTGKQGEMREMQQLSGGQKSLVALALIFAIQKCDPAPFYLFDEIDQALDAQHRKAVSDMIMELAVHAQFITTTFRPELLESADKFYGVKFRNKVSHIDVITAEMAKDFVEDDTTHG

For assay [1], the target named is YFP-PHF13 Δ7ΔPHD (UniProt Q86YI8). The experiment in a line: co-IP.
Assay [2] shares this target. The experiment in a line: co-IP. The source holds these as a separate data set.

Regarding “SMC3 (endogenous cohesin subunit) (from UniProt Q9UQE7 1-1217)”, the binding result with YFP-PHF13 Δ7ΔPHD [1] and with YFP-PHF13 Δ7ΔPHD [2] was “no binding” throughout.

The values are drawn from doi:10.1101/2022.03.04.482956.
